{
  "source": "patent US4466806A",
  "about": "“Dyeing compositions containing 3-amino-4-nitroanisole derivatives and their use in dyeing keratin fibres as well as certain new said derivatives” (L'Oreal, priority 1980, dated 1984)",
  "data": [
    {"assay": "Colouration of bleached hair by a solution of the dyestuff, expressed in Munsell's notation (HV/C)", "set-up": "species or system human", "conditions": "28° C., 30 minutes, 0.00028 mol dye in 15 ml ethanol and 85 ml water, pH 9", "values": [
      {"smiles": "COc1ccc([N+](=O)[O-])c(NCC(O)CO)c1", "note": "(stereo not drawn) [3-N-(β,γ-dihydroxypropyl)-amino-4-nitroanisole]", "chromaticity (C in Munsell's notation)": 9.5},
      {"smiles": "COc1ccc([N+](=O)[O-])c(NCCO)c1", "note": "[3-N-(β-hydroxyethyl)-amino-4-nitroanisole]", "chromaticity (C in Munsell's notation)": 10},
      {"smiles": "COc1ccc([N+](=O)[O-])c(NCC(C)O)c1", "note": "(stereo not drawn) [3-N-(β-hydroxypropyl)-amino-4-nitroanisole]", "chromaticity (C in Munsell's notation)": 8.5}
    ]}
  ]
}
